Results as given in PMC7290032.

The chains behind the UniProt entries cited, without tags or fusion partners. Where a name states a change or a piece, a line headed by the entry shows the natural chain unless it says otherwise.
UniProt Q8N3J3: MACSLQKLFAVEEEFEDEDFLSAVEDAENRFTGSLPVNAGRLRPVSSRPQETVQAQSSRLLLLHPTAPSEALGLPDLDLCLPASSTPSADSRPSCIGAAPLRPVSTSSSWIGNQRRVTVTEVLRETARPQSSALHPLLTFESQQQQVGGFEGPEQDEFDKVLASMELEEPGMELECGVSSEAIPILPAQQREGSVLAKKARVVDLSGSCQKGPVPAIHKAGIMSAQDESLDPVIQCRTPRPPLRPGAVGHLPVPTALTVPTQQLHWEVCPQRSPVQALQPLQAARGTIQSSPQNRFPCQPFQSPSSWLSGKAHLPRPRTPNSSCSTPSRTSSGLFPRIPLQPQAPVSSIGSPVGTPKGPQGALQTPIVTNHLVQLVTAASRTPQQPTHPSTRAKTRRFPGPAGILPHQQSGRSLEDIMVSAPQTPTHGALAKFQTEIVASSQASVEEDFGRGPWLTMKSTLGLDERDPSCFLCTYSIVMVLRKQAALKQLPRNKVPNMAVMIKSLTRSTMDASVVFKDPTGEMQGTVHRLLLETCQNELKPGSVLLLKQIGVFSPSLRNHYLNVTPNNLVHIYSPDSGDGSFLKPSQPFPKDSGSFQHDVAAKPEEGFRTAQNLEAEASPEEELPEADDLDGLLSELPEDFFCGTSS
UniProt P27694: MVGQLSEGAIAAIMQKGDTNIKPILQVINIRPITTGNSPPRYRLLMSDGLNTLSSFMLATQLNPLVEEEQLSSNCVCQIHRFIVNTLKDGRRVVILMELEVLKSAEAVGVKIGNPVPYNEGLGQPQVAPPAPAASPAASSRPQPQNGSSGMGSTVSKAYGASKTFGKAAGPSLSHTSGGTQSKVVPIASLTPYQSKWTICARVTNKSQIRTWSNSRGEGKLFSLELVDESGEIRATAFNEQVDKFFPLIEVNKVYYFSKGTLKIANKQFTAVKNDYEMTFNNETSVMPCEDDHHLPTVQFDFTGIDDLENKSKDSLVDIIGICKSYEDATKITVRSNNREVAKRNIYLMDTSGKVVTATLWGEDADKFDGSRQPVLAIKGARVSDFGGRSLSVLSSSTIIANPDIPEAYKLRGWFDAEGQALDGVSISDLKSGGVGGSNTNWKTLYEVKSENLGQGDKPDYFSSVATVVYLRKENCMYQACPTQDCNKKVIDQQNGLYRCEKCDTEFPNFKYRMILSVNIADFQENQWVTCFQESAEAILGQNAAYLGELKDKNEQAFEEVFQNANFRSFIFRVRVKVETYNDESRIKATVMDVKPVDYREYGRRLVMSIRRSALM

Tests used:
[1] = target: GST-MCM8IP lacking the second acidic motif (Δ153–168) (human) (UniProt Q8N3J3); experiment: pull-down; GST fusion from E. coli held on glutathione-agarose and washed, incubated 2 h at 4 °C with cleared lysate of bacteria expressing the partner; 20 mM Tris-HCl pH 7.5, 200 mM NaCl, 0.5% NP40; western blot; only the target purified
[2] = target: GST-MCM8IP lacking the first acidic motif (Δ1–54) (human) (UniProt Q8N3J3); experiment: as above

Which results are given for “RPA1 (expressed in bacteria) (from UniProt P27694 1-616)”?
binding [1]: binds; binding [2]: binds

Results are given in words; binding and its absence hold for the method and conditions named. In cells and extracts the contact can be indirect. Binding calls can cover weak binding; strength is not graded here.
